Test results reported in patent US20050009052A1 (priority 2003, published 2005).

Columns and labels:
pac10Δ/pac10Δ strain [1] = type: cell-based, Saccharomyces cerevisiae; details: pac10Δ/pac10Δ grown individually, YPD, 30° C.; staurosporine 1 μM, caffeine 8 mM, latrunculin B 2 μg/ml
From the text: (§1) Strains, media and inhibitors.

pdr5Δ/pdr5Δ strain [2] = type: cell-based, Saccharomyces cerevisiae; details: pdr5Δ/pdr5Δ grown individually, YPD, 30° C.; staurosporine 1 μM, latrunculin B 2 μg/ml
From the text: as §1

gim4Δ/gim4Δ strain [3] = type: cell-based, Saccharomyces cerevisiae; details: gim4Δ/gim4Δ grown individually, YPD, 30° C.; staurosporine 1 μM, latrunculin B 2 μg/ml
From the text: as §1

alg7Δ/ALG7 strain = type: cell-based, Saccharomyces cerevisiae
From the text: as §1

ACT1/act1Δ strain = type: cell-based, Saccharomyces cerevisiae; details: ACT1/act1Δ grown individually, YPD, 30° C.; staurosporine 1 μM, latrunculin B 2 μg/ml
From the text: as §1

act1Δ/ACT1 strain = assay: Differential Tag Length Analysis (DTLA) of 11-strain mixed yeast culture with inhibitor; type: cell-based, Saccharomyces cerevisiae; details: act1Δ/ACT1 in mixed culture, 20 hours; staurosporine 1 μM
Procedure: as §1
(§2) Tag amplification and capillary electrophoresis. Oligonucleotides Fluor-1 (6-Fam-[…]) and Pho-1 (Phosphate-[…]) were used for the amplification of tag DNAs. PCR reactions were performed in 50 μl reaction volume containing the 2 primers at a final concentration of 1 μM each and 2.5 units of Stoffel fragment AmpliTaq DNA polymerase (Applied Biosystems, Foster City, Calif.). After an initial 2 min denaturing step at 94° C., the reactions underwent 30 amplification cycles (94° C., 30 sec; 60° C., 30 sec; 72° C., 30 sec with a 6 sec increase in extension time per cycle) followed by a post-amplification extension step (72° C., 10 min). As a template for the PCR reactions, 100 ng of plasmid DNA, 700 ng of genomic DNA (extracted from yeast strains using MasterPure Yeast DNA purification kit; Epicentre, Madison, Wis.), or an equivalent to 0.5 μl of saturated culture of yeast protoplasts (prepared by using lyticase) (see, e.g., Chen et al., Biotechniques 19:744-746 (1995)) was used. The PCR products were incubated with λ-exonuclease for 1 h at 37° C. and then purified using MinElute PCR purification kit (QIAGEN Inc., Valencia, Calif.). After 1 h digestion with EcoRI, the PCR products were again purified with the same kit and adjusted to 70% formamide and 1 mM EDTA and analyzed by capillary electrophoresis on ABI Prism 3700 DNA analyzer (Applied Biosystems, Foster City, Calif.) using 3700 POP-5 polymer.
(§3) Data analysis. To access the raw fluorescence data collected by ABI Prism 3700 DNA analyzer, a Visual Basic program was used that extracted the electropherogram values and converted them into a text file format. Peak quantitation was then performed using Caesar Workstation 5.0 (SciBridge Software, Los Angeles, Calif.). In the majority of cases, the relative representation of each tag in the PCR product was calculated by dividing the area under the corresponding tag peak by the sum of all tag peak areas. For the measurement of different input amounts of tag 42, the average peak area of the other 10 tags was first calculated. The area value of tag 42 was then divided by this averaged value to give normalized tag 42 area.

pdr5Δ/pdr5Δ strain [4] = assay: as above; type: cell-based, Saccharomyces cerevisiae; details: pdr5Δ/pdr5Δ in mixed culture, 20 hours; staurosporine 1 μM
Procedure: as §1, §2, §3

gim4Δ/gim4Δ strain [5] = assay: as above; type: cell-based, Saccharomyces cerevisiae; details: gim4Δ/gim4Δ in mixed culture, 20 hours; staurosporine 1 μM
Procedure: as §1, §2, §3

rlm1Δ/rlm1Δ strain [6] = assay: as above; type: cell-based, Saccharomyces cerevisiae; details: rlm1Δ/rlm1Δ in mixed culture, 20 hours; staurosporine 1 μM, tunicamycin 0.4 μg/ml
Procedure: as §1, §2, §3

pkc1Δ/PKC1 strain = assay: as above; type: cell-based, Saccharomyces cerevisiae; details: pkc1Δ/PKC1 in mixed culture, 20 hours; staurosporine 1 μM
Procedure: as §1, §2, §3

pde2Δ/pde2Δ strain = assay: Growth of individually cultured yeast strain with inhibitor (O.D.600); type: cell-based, Saccharomyces cerevisiae; details: pde2Δ/pde2Δ grown individually, YPD, 30° C.; staurosporine 1 μM, latrunculin B 2 μg/ml
From the text: as §1

rlm1Δ/rlm1Δ strain [7] = assay: as above; type: cell-based, Saccharomyces cerevisiae; details: rlm1Δ/rlm1Δ grown individually, YPD, 30° C.; staurosporine 1 μM, caffeine 8 mM, tunicamycin 0.4 μg/ml
From the text: as §1

bro1Δ/bro1Δ strain = details: bro1Δ/bro1Δ grown individually, YPD, 30° C.; staurosporine 1 μM, caffeine 8 mM
pac10Δ/pac10Δ strain [8] = type: cell-based, Saccharomyces cerevisiae; details: pac10Δ/pac10Δ in mixed culture, 20 hours; staurosporine 1 μM
wild-type strain = details: wild-type grown individually, YPD, 30° C.; staurosporine 1 μM

Compound: CN[C@@H]1C[C@H]2O[C@@](C)([C@@H]1OC)n1c3ccccc3c3c4c(c5c6ccccc6n2c5c31)C(=O)NC4 [staurosporine]
- sensitivity of growth to inhibitor (arp2Δ/ARP2 strain): insensitive
- sensitivity of growth to inhibitor (pac10Δ/pac10Δ strain [1]): sensitive
- sensitivity of growth to inhibitor (pdr5Δ/pdr5Δ strain [2]): sensitive
- sensitivity of growth to inhibitor (gim4Δ/gim4Δ strain [3]): insensitive
- sensitivity of growth to inhibitor (alg7Δ/ALG7 strain): insensitive
- sensitivity of growth to inhibitor (ACT1/act1Δ strain): sensitive
- sensitivity of growth to inhibitor (PKC1/pkc1Δ strain): sensitive
- depletion of strain relative to the non-treated culture (act1Δ/ACT1 strain): 53%
- depletion of strain relative to the non-treated culture (pdr5Δ/pdr5Δ strain [4]): 75%
- decrease of strain relative to the non-treated culture (gim4Δ/gim4Δ strain [5]): 44%
- decrease/reduction of strain relative to the non-treated culture (rlm1Δ/rlm1Δ strain [6]): 60%
- depletion of strain relative to the non-treated culture (pkc1Δ/PKC1 strain): 61%
- sensitivity of growth to inhibitor (pde2Δ/pde2Δ strain): insensitive
- sensitivity of growth to inhibitor (rlm1Δ/rlm1Δ strain [7]): insensitive
- sensitivity of growth to inhibitor (bro1Δ/bro1Δ strain): insensitive
- depletion of strain relative to the non-treated culture (pac10Δ/pac10Δ strain [8]): 60%
- sensitivity of growth to inhibitor (wild-type strain): insensitive
